We go through 22 substances from patent US8674061B2 (priority 2008, dated 2014).

The first series can be described thus: general procedure: solution-phase peptide synthesis; active ester (11) with (CH3CH2)3N in DMSO. The settings on record: conjugation step, ammonium salt.
Turning to “{6′SLN—S1—S2-[Gly2(MCMGly)]3Gly2-NHCH2}3CCH3”, the conjugation yield is on record as 83%.
On to “{6′SLN—S1—S2-[Gly2(MCMGly)]4Gly2-NHCH2}3CCH3”, for which the conjugation yield was determined as 86%.
With “{6′SLN—S1—S2-[Gly2(MCMGly)]5Gly2-NHCH2}3CCH32”, the conjugation yield was determined as 91%.

Staying with this series, now noted: coupling step, CF3COOH salt (deprotected amines).
{Boc-[Gly2(MCMGly)]2Gly2-NHCH2}3CCH3: the step yield is reported as 94%.
As for {Boc-[Gly2(MCMGly)]2Gly2-NHCH2}4C, the step yield is on record as 71%.
With {Boc-[Gly2(MCMGly)]3Gly2-NHCH2}3CCH3, the step yield was determined as 97.5%.
On to {Boc-[Gly2(MCMGly)]4Gly2-NHCH2}3CCH3, for which the step yield was 97%.
For {Boc-[Gly2(MCMGly)]4Gly2-NHCH2}4C, the step yield is 96%.
On the same count and under the same terms, the same measure for {Boc-[Gly2(MCMGly)]5Gly2-NHCH2}3CCH3: 98%; for {Boc-[Gly2(MCMGly)]5Gly2-NHCH2}4C: 95%.
{Boc-[Gly2(MCMGly)]Gly2-NHCH2}3CCH3: the step yield was determined as 91.5%.
In the case of {Boc-[Gly2(MCMGly)]Gly2-NHCH2}4C, the step yield was determined as 68%.

Staying with this series, now noted: late stage modification step, CF3COOH salt.
For the substance “{CF3COOH-H-[Gly2 (MCMGly)]2Gly2-NHCH2}4C”, the step yield is 98%.
Same read-out and setting: under “{CF3COOH.H-[Gly2(MCMGly)]2Gly2-NHCH2}3CCH3” stands 97%.
On to “{CF3COOH.H-[Gly2(MCMGly)]3Gly2-NHCH2}3CCH3”, for which the step yield is 96%.
On to {CF3COOH.H-[Gly2(MCMGly)]3Gly2-NHCH2}4C, for which the step yield was determined as 99%.
Still for that read-out and setting: under “{CF3COOH.H-[Gly2(MCMGly)]4Gly2-NHCH2}3CCH3” stands 97%; under {CF3COOH.H-[Gly2(MCMGly)]4Gly2-NHCH2}4C, 96%.
As for “{CF3COOH.H-[Gly2(MCMGly)]5Gly2-NHCH2}3CCH3”, the step yield is reported as 94%.
Same read-out and setting: the same measure for {CF3COOH.H-[Gly2(MCMGly)]5Gly2-NHCH2}4C: 99%; for “{CF3COOH.H-[Gly2(MCMGly)]Gly2-NHCH2}3CCH3”: 98%; for {CF3COOH.H-[Gly2(MCMGly)]Gly2-NHCH2}4C: 99%.
